# Results: PubChem BioAssay AID540276 (National Center for Advancing Translational Sciences (NCATS), 2011)
# Where “and” joins values, the source holds several entries; their conditions need not be identical. Equal entries are not always repeated. Among all 300,000 compounds or so, about 5,400 (1.8%) were called active. Inconclusive means that the source gave no clear call. Such entries were picked first, then a sample of the others. Calls come from the whole dose curve; tested in HEK293 cells. Potencies of inconclusive entries are doubtful fits and often do not repeat.
# Test: qHTS for inhibitors of binding or entry into cells for Marburg Virus
# Details: Marburg virus pseudotyped entry inhibition, cell reporter; activity change, negative = inhibition: at 37.8 µM (top of the series) unless noted
# % is set by controls: 0 for no effect and ±100 for the full control effect; potency is the fitted concentration of half-maximal effect.
Structure (SMILES),Potency,"activity change, negative = inhibition"
CCOc1ccccc1Nc1ccnc2cc(Cl)ccc12,"inconclusive: 23.1 µM [inhibitor, partial curve, poor fit]",–
O=C1NC(c2ccccc2)=C(c2nc3ccccc3s2)C(c2ccc(F)cc2)N1 (centres undefined),active: 23.1 µM,–
NNC(=O)c1sccc1OCc1ccc(F)cc1,–,inactive: 25.6% [at 46.1 µM]
CCOc1ccc2[nH]c(=O)c(CN(Cc3ccccc3)C(=O)N3CCCC3)cc2c1,"inconclusive: 16.4 µM [inhibitor, partial curve, poor fit]",–
Nc1cc(S(=O)(=O)Nc2ccc(Br)cc2)ccc1Cl,"inconclusive: 11.2 µM [inhibitor, partial curve, poor fit]",–
COc1ccc(C(=S)N2CCOCC2)cc1OS(=O)(=O)c1ccccc1[N+](=O)[O-],–,inactive: 15.8% [at 46.1 µM]
Cc1ccc(-c2nc3n(n2)C(c2ccccc2Cl)C=C(c2ccc(Cl)cc2)N3)cc1 (centres undefined),–,inactive: -26.7% [at 46.1 µM]
COc1ccccc1C1(CCNS(=O)(=O)c2ccc(C)cc2)CCOC(C(C)C)C1 (centres undefined),"inconclusive: 11.2 µM [inhibitor, partial curve]",–
CN(Cc1ccccc1)C(=O)C(=O)c1cn(CC(=O)N2CCCC2)c2ccccc12,–,inactive: 8.79% [at 46.1 µM]
Cc1ccc(CC2S/C(=C(/C#N)C(=O)NCc3ccco3)N(c3ccccc3)C2=O)cc1 (centres undefined),"inconclusive: 29.1 µM [inhibitor, single point]",–
C=CC1(O)C(OC)=CC2C(=O)C1C(c1ccccc1)C2C (centres undefined),–,inactive: 14.1% [at 14.2 µM]
COc1cc(CC(=O)N(C)CC(=O)Nc2ccc(Cl)c(C(F)(F)F)c2)cc(OC)c1OC,"inconclusive: 22.4 µM [inhibitor, single point]",–
Cc1ccccc1NS(=O)(=O)c1ccc(C(=O)N2CCN(c3ccccn3)CC2)cc1,"inconclusive: 35.5 µM [inhibitor, partial curve, poor fit]",–
CN(N=O)c1ccc(O)c(O)c1,active: 17.7 µM and active: 7.94 µM,–
CN(c1ccccc1C(=O)O)S(=O)(=O)c1ccc2c3c(cccc13)C(=O)N2,–,inactive: -4.65%
O=C(c1ccc(-c2nc3ccccc3s2)s1)N1CCOCC1,"inconclusive: 1.12 µM [inhibitor, full curve, poor fit]",–
CSc1n[nH]c(-c2ccc(C(F)(F)F)cc2)n1,"inconclusive: 1.58 µM [activator, partial curve, poor fit]",–
COC(=O)CCS(=O)(=O)c1nc(-c2ccccc2)cc(C(F)(F)F)n1,"inconclusive: 23.1 µM [inhibitor, single point]",–
C/C(=N\NC(=O)c1cccc2ccccc12)c1ccccn1,"inconclusive: 5.62 µM [inhibitor, full curve, poor fit]",–

# Reprinted from the entries so far for reference:
Structure (SMILES),Potency,"activity change, negative = inhibition"
Cc1ccccc1NS(=O)(=O)c1ccc(C(=O)N2CCN(c3ccccn3)CC2)cc1,"inconclusive: 35.5 µM [inhibitor, partial curve, poor fit]",–
CN(N=O)c1ccc(O)c(O)c1,active: 17.7 µM and active: 7.94 µM,–
